# Experimental data: the supplement of paper PMC10849652
# Chains of the proteins cited; added tags and fusions are not shown. Lines headed by an entry give the natural chain unless they say otherwise; changes in a name come on top.
# UniProt Q15025: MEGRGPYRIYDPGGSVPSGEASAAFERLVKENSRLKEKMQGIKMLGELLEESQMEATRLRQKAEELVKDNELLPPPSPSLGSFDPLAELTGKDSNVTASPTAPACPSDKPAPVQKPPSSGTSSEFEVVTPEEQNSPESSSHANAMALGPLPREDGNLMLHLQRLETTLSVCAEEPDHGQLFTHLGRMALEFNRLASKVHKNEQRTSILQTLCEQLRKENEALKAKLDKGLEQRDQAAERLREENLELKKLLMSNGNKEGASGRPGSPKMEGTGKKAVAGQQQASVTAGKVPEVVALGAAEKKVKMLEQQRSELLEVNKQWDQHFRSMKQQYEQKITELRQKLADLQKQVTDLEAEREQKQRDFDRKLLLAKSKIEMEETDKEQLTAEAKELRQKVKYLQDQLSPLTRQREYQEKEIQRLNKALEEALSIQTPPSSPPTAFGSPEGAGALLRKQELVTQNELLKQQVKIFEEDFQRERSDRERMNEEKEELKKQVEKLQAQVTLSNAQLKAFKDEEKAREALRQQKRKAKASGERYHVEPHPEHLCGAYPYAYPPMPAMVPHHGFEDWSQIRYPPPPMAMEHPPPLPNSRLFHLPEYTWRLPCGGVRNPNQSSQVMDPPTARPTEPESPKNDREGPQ
# UniProt Q96S44: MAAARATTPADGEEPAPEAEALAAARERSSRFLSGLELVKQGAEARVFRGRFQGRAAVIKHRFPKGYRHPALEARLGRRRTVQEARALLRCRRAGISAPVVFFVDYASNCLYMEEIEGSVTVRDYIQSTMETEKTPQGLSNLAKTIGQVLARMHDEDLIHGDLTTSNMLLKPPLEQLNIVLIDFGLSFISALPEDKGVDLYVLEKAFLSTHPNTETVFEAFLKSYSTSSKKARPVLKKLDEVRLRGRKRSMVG
# UniProt Q13641: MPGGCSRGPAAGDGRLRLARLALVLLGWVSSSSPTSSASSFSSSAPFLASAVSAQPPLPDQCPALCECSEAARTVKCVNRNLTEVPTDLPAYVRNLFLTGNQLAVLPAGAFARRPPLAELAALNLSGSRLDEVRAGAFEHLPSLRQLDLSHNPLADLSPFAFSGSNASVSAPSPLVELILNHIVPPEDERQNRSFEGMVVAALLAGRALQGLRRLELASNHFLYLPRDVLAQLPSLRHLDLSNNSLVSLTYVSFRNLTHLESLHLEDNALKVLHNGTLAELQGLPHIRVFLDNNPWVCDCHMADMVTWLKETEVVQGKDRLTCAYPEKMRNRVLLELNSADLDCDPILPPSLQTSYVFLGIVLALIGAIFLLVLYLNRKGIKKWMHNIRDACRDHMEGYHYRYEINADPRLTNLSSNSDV
# UniProt Q8NDV7: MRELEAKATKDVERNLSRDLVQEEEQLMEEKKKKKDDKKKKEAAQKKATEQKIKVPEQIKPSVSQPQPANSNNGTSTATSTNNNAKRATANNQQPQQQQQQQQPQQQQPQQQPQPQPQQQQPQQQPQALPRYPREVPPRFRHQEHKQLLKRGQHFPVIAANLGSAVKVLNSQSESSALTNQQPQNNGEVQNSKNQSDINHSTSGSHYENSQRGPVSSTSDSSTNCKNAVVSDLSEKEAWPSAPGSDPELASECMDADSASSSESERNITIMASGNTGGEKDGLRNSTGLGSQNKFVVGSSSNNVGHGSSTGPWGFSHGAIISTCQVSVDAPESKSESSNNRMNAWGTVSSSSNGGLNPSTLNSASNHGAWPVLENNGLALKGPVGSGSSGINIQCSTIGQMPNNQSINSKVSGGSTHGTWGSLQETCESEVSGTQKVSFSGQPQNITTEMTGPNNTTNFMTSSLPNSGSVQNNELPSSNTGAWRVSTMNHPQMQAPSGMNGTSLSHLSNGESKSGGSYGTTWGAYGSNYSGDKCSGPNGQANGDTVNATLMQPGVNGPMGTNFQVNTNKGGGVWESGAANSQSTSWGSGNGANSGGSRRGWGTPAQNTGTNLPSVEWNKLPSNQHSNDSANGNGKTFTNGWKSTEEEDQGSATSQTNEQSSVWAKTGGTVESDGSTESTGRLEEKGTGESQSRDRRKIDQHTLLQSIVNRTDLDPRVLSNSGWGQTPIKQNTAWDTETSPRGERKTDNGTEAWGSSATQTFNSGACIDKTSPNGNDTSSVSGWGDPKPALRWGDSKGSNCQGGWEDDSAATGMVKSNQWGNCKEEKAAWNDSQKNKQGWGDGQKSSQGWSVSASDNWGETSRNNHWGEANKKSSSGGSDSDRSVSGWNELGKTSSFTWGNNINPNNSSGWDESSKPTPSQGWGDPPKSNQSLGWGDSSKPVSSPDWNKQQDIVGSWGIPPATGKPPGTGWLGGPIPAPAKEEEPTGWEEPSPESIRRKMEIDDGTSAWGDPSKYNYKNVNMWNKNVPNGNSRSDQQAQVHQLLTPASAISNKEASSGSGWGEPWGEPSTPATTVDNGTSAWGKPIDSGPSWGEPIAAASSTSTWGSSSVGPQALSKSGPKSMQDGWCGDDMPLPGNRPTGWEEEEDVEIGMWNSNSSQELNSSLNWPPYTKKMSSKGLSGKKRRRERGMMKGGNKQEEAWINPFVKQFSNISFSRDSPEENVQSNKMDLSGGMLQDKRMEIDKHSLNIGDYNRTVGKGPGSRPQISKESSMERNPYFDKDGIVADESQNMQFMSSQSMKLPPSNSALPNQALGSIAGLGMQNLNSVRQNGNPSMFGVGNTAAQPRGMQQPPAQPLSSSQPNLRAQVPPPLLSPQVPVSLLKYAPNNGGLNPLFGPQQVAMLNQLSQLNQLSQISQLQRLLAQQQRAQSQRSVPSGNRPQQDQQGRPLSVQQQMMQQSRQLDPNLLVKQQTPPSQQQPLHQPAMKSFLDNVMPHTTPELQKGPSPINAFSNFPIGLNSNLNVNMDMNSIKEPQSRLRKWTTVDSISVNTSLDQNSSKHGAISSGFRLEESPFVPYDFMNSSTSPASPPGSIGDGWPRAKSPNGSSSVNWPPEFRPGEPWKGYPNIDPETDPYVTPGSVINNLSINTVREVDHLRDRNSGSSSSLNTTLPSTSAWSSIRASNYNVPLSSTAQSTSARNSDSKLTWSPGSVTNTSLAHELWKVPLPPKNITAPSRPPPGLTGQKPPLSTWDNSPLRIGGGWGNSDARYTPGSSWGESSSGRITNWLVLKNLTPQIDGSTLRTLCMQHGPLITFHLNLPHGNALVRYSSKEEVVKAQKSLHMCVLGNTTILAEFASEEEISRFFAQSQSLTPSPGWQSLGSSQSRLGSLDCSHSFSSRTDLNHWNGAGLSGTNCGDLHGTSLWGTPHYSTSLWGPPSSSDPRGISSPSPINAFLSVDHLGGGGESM
# UniProt Q9HCN3: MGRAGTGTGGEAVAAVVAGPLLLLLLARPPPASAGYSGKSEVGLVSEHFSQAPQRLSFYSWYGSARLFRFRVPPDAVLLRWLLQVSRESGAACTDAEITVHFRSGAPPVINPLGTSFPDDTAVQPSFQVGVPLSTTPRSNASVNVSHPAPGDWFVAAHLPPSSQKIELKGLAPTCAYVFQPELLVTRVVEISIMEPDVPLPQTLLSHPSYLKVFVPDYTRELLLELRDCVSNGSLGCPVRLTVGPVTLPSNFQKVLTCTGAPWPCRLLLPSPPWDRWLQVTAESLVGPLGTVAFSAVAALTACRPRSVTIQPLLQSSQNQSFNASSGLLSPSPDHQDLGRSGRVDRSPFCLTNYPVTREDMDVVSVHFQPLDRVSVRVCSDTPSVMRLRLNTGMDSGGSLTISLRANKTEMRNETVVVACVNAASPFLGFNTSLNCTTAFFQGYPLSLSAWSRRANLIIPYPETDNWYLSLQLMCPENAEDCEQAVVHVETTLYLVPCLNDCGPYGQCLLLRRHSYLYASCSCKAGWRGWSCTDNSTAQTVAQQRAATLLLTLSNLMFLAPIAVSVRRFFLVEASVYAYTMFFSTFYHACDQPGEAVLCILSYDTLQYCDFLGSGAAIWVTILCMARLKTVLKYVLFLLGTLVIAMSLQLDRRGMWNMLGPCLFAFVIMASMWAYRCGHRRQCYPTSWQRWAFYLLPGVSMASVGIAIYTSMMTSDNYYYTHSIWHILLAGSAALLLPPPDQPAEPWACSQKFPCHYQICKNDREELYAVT
# UniProt P06753, whole entry, looked up: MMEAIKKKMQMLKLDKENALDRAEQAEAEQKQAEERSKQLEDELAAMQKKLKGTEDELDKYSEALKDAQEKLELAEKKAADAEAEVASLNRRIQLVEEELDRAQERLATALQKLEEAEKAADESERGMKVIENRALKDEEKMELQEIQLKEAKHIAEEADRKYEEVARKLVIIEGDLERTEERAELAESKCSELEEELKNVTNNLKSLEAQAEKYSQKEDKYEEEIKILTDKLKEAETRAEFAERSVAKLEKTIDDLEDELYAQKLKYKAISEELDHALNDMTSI
# UniProt Q96B49: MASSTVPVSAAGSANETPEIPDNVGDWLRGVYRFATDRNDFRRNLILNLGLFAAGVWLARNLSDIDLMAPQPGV
# UniProt Q71RG4: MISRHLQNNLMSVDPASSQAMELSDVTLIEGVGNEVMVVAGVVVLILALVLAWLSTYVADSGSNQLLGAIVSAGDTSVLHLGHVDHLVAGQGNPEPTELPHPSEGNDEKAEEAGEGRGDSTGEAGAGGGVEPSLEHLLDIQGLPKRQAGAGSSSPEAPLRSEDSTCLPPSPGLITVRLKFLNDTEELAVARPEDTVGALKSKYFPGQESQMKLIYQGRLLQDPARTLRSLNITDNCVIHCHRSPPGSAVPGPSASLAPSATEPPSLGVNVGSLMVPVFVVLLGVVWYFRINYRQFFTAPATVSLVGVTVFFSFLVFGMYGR
# UniProt O60784, whole entry, looked up: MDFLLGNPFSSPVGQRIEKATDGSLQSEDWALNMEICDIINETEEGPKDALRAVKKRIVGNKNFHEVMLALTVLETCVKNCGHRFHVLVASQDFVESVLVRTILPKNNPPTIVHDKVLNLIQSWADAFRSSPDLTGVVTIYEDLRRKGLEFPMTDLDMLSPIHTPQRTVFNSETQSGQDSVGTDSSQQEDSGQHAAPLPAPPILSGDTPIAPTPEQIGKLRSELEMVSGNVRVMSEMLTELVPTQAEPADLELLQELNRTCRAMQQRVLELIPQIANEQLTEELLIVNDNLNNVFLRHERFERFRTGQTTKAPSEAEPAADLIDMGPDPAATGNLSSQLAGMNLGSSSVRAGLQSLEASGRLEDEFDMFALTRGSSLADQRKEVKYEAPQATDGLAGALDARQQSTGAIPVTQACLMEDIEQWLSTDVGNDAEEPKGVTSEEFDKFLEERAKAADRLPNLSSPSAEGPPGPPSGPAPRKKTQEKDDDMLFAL
# UniProt Q6ZT21: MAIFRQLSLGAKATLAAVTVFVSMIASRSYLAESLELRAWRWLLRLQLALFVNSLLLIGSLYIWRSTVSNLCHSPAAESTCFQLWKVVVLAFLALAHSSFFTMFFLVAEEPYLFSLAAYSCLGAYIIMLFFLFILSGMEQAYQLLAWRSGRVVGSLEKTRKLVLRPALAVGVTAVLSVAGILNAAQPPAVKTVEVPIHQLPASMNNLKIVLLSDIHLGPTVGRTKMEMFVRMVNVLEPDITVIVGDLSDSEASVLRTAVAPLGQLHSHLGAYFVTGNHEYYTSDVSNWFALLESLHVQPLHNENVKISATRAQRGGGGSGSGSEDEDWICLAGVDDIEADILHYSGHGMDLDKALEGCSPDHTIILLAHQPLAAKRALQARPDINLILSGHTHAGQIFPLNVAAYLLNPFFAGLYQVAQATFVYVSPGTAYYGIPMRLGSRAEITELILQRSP
# UniProt Q13595: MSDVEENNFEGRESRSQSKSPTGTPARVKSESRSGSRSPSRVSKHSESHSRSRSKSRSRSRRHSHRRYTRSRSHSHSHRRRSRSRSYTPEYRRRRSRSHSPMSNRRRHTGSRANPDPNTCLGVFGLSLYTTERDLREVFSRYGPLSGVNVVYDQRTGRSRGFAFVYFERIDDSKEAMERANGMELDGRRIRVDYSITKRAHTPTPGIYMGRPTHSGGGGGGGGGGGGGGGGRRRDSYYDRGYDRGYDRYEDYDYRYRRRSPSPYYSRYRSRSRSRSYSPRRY
# UniProt Q8NFZ5: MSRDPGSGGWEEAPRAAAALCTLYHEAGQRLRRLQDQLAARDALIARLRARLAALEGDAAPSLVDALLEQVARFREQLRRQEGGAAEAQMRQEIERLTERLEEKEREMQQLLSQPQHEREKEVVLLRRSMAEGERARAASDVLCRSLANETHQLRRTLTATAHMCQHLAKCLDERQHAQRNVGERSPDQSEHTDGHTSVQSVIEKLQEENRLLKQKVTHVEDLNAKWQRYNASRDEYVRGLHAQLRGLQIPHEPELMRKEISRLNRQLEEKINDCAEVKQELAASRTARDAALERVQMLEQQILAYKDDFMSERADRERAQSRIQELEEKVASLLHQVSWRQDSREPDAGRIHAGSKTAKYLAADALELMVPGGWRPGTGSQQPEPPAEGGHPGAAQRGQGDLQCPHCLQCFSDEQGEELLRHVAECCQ
# UniProt P02585, whole entry, looked up: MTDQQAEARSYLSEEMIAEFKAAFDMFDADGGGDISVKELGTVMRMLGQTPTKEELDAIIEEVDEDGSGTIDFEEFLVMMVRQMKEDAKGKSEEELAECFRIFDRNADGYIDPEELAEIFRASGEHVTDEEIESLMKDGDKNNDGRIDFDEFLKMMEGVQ
# The list shows a part of the results.
# Compound: C1=CC2=C(C=CC(=C2)/C=C\3/C(=O)NC(=NCC4=CC=CS4)S3)N=C1
# Experiment: log2 fold change, soluble protein after heating vs DMSO (PISA); higher = thermal stabilisation; K562 lysate, 10 uM; active = over 0.2 and 3.5 SD of the protein, either way, in both replicates (recomputed)
# How it was run: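 To prepare the extract, K562 pellets were dounce-homogenised in PBS pH 7.4 with 1 mM MgCl2, giving crude material at 1 mg/mL protein. This was treated with 10 μM compound for 30 min, then heated in aliquots for 3 min over 48°C-58°C before pooling and addition of NP-40 to 0.5% at 4°C. Centrifugation at 21,000xg for 90 min left soluble protein in the supernatant, which TMTpro 16plex LC-MS/MS quantified with equalised channel sums. Results are log-two fold changes in thermal stability compared with solvent controls, from duplicates.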
row,Target,log2 fold change
1,TRA2B (UniProt P62995),inactive: -0.036
2,TMEM9 (UniProt Q9P0T7),inactive: 0.052
3,TNIP1 (UniProt Q15025),inactive: 0.014
4,TP53RK (UniProt Q96S44),active: -0.24
5,TOPAZ1 (UniProt Q8N9V7),inactive: -0.073
6,TPCN1 isoform 3 (UniProt Q9ULQ1),inactive: -0.089
7,TPBG (UniProt Q13641),inactive: -0.074
8,TMEM19 (UniProt Q96HH6),inactive: -0.013
9,TNRC6A (UniProt Q8NDV7),inactive: -0.097
10,TPM1 (UniProt H7BYY1),inactive: 0.026
11,TPK1 (UniProt Q9H3S4),inactive: 0.095
12,TMEM8A (UniProt Q9HCN3),inactive: 0.088
13,TMEM230 isoform 2 (UniProt Q96A57),inactive: 0.057
14,TPM3 (UniProt P06753),inactive: -0.042
15,TOMM6 (UniProt Q96B49),inactive: -0.046
16,TMUB2 (UniProt Q71RG4),inactive: -0.057
17,TOR1AIP1 (UniProt Q5JTV8),inactive: -0.358
18,TOM1 (UniProt O60784),inactive: -0.018
19,TMEM248 (UniProt Q9NWD8),inactive: 0.035
20,TMPPE (UniProt Q6ZT21),inactive: 0.031
21,TRA2A (UniProt Q13595),inactive: -0.03
22,TNIP2 (UniProt Q8NFZ5),inactive: 0.212
23,TNNC2 (UniProt P02585),inactive: 0.004

# Seven entries from above, set out differently:
row	Target	log2 fold change
9	TNRC6A (UniProt Q8NDV7)	inactive: -0.097
10	TPM1 (UniProt H7BYY1)	inactive: 0.026
11	TPK1 (UniProt Q9H3S4)	inactive: 0.095
12	TMEM8A (UniProt Q9HCN3)	inactive: 0.088
13	TMEM230 isoform 2 (UniProt Q96A57)	inactive: 0.057
14	TPM3 (UniProt P06753)	inactive: -0.042
15	TOMM6 (UniProt Q96B49)	inactive: -0.046
